# PubChem BioAssay AID743448, Peter MacCallum Cancer Centre – 2014
# Test: 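Find knock-downs giving vorinostat-specific cell death in several colon cancer lines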 (follow-up of hits)
# Cells: four human colon cancer cell lines: HCT116-VR (vorinostat-resistant HCT116 derivative), SW480, SW620 and LIM1215
# Reagent: siRNA pool against human genes, 40 nM siRNA pool
# Time to read-out: drug added two days after transfection, read one day later
# Challenge: vorinostat 2.5 µM on one half of each plate, etoposide 5 µM on the other half
# Cell line and drug panel: SW480 cells with vorinostat
# Measurement: 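Caspase 3/7 activity by luminescence and live-cell viability by fluorescence, each given as a ratio to mock-transfected wells and as a robust z-score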
# Direction: caspase ratio to mock: higher = more caspase activity than mock; viability ratio to mock: higher = more live cells than mock; caspase robust z-score: higher = more caspase activity, more apoptosis; viability robust z-score: higher = more live cells
# Call rule: 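a row is a hit if caspase relative to mock is 1.6 or above or viability relative to mock is 0.75 or below; wells dying heavily without drug are not called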
# Meaning of the calls: active = caspase or viability hit in this panel; inactive = no change, or unhealthy well
# This is a random part of the 106 reagents, under one of the conditions tested. 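Calls are per line and drug panel including etoposide, not vorinostat-specific; gene picks needed hits in two or more extra lines with vorinostat versus etoposide.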 Unmarked entries are inactive.
target,caspase ratio to mock,viability ratio to mock,caspase robust z-score,viability robust z-score
AKAP8,2.33 (active),1.16,1.32,1.77
ZNF441,1.64 (active),0.98,-0.13,0.68
MTF2,1.08 (active),0.72,-1.33,-1.06
CNOT3,2.41 (active),0.9,1.5,0.1
MED28,1.52,0.66,-0.4,-1.37
THAP3,1.26,0.76,-0.96,-0.8
EIF3I,1.39,0.51,-0.68,-2.38
DPPA5,1.55,1.01,-0.34,0.82
DDX18,0.97,1.01,-1.58,0.83
CBX7,2.11 (active),0.88,0.86,-0.02
PNN,1.73 (active),0.81,0.05,-0.47
IRX2-DT,2.5 (active),1.04,1.7,1.05
CAPN12,1.22,0.74,-1.04,-0.87
THOC5,1.65 (active),0.94,-0.11,0.36
SCRT2,1.98 (active),0.9,0.58,0.1
INTS6L,1.32,0.84,-0.82,-0.22
LRP3,1.28,0.98,-0.92,0.58
OR2W5,1.54,1,-0.34,0.75
RNF186,1,1.02,-1.5,0.9
HSPA6,2.3 (active),0.8,1.27,-0.49
CDK10,1.64 (active),0.96,-0.16,0.51
NUP93,1.12,0.93,-1.27,0.32
HPCAL1,1.57,0.95,-0.29,0.42
RWDD2A,1.6 (active),0.92,-0.22,0.28
THAP1,1.53,1,-0.38,0.76
NUP62,1.39,0.9,-0.68,0.1
BDP1,2.33 (active),1.1,1.32,1.42
PCP4,1.6,0.74,-0.22,-0.96
POLR2G,1.99 (active),0.72,0.59,-1.06
POLR2D,2.36 (active),0.64,1.39,-1.54
FANCA,2.02 (active),0.94,0.66,0.36
IQSEC1,2.17 (active),0.72,1,-1.04
TOX4,1.64 (active),0.86,-0.15,-0.12
CSE1L,2.19 (active),1.07,1.05,1.22
EIF2S1,1.25,0.77,-0.98,-0.7
TFAP2D,2.19 (active),1.09,1.03,1.32
KIR2DL1,2.12 (active),1.17,0.89,1.82
MICALL2,2.84 (active),1.19,2.42,1.99
LBHD1,1.82 (active),0.87,0.24,-0.06
SEMA4F,1.88 (active),0.84,0.38,-0.25
UTP3,1.28 (active),0.75,-0.92,-0.82
SIN3A,1.64 (active),1.02,-0.14,0.86
EIF4A1,1.12,0.84,-1.25,-0.24
ANKRD13C-DT,1.77 (active),0.72,0.14,-0.98

Taken from above.
Under “viability ratio to mock”, ZNF441 shows 0.98 (active)
Result for CSE1L in “caspase ratio to mock”: 2.19 (active)
For “viability robust z-score”, HPCAL1 shows 0.42
Result of EIF4A1 under “caspase ratio to mock”: 1.12
